No constants are given. Whether binding was seen depends on the method and setting. Binding seen in cells or lysates may run through a third protein. Binding can be weak; no strength is given. Sequences can lack the tags named with a protein.
Target: GST fusion of the intracellular domain of SDN-1, full size (SDN-1ICD) (C. elegans) (UniProt P50605)
Experiment: pull-down

Protein sequences, listed by entry. Tags and fused reporters are not part of them. Lines headed by an entry give the natural chain unless they say otherwise; changes in a name come on top.
UniProt P50605: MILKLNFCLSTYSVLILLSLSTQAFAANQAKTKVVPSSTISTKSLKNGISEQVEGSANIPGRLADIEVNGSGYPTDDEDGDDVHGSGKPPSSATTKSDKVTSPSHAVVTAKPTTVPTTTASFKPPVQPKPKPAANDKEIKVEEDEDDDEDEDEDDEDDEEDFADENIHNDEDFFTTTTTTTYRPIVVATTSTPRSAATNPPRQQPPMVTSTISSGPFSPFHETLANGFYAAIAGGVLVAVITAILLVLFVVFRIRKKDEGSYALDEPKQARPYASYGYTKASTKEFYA

B1: HA tagged LIN-2B (protein, UniProt P54936-2 1-620)
chain: MSSAATPPPMEHTSSEDSTTAPLQTPSSSSCLDVTVAVGTSVSYLKASPLVSSPTSLVVDITESSSTLLYDKIKALPCEPVVTEVDTSTLRKETLNQIDGLLGPSPEALELRQLLNSPHLASCVQALDVVVCEIRDPKNEASGSGDKEGNCVSSDPAPAYLNGGVLPLGAQRAGTSFEHFNQSAVHTSYDEEEEELYDCMSRLRLVQFQKDTQEPMGITLKVNEDGRCFVARIMHGGMIHRQATLHVGDEIREINGMSVANRSVESLQEMLRDARGQVTFKIIPSYRSAPPACEIFVRAQFDYEPSQDDLIPCPQAGIPFKTGDILQVISKDDHNWWQARFVSSFPSIGNSSNAQRSNQQQVAGLIPSPELQEWRTACLAMERSKNTCNTHCMWFNKKKKYYTTKYLQKHSALFDQLDLVTYEEVMRLSQYRRKTLVLLGAHGVGRRHIKNTLIHRHPNRFAYPIPHTTRPPRKDEVDGKHYYFVTNEQMMADIQNNEYLEYGTHEESMYGTKLETIRNIHKSGKIAILDVEPQALKVLRTAEYSPFVVFIAAPNLQGMQDPDGSLEKLLNESDVLRQAFGHLFDFIITNSDIDDTIAQLERLVEKLPAYPQWLPVTWVY
binding: binds
